Test results as given in patent publication US10183937B2.
Certain results were filed several times, with different values. This list holds those alone. The source may hold further records. The values listed for one entry do not match, cause unknown; dose, time, organism, isomer or construct need not be as stated for each record.

System: CFA-induced mechanical hyperalgesia
Assay: Rat CFA in vivo model
Set-up: species or system Sprague Dawley rats
Conditions: 3 mg/kg p.o.

SMILES: Cc1ccc(-c2cc(OC3CCOC3)cc(C(=O)N[C@H](C)c3ccc(C)nc3)c2)nc1 (stereo partly shown)
- Paw withdrawal threshold 6 hour-post drug: 565 ± 74 gf (ns) and 549 ± 42 (ns) gf
